Common to all, as to test: log2 fold change, soluble protein after heating vs DMSO (PISA); higher = thermal stabilisation; K562 lysate, 10 uM; active = over 0.2 and 3.5 SD of the protein, either way, in both replicates (recomputed)
Compound in test [1]: NCC(=O)Nc1ccc(-n2nc(C(F)(F)F)cc2-c2ccc3c(ccc4ccccc43)c2)cc1
A digest of the protocol: (§1)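 K562 pellets were dounce-homogenised in PBS pH 7.4 containing 1 mM MgCl2, and the crude extract, at 1 mg/mL protein, was exposed to 10 μM compound for 30 min. Aliquots were heated for 3 min across 48°C-58°C, pooled, brought to 0.5% NP-40 at 4°C and spun at 21,000xg for 90 min, with the supernatant taken as soluble protein. TMTpro 16plex LC-MS/MS with equalised channel sums quantified that protein. Values are log-two fold changes in thermal stability relative to solvent controls, taken from duplicates.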

Chains of the proteins cited; added tags and fusions are not shown. Lines headed by an entry give the natural chain unless they say otherwise; changes in a name come on top.
UniProt Q96EN8: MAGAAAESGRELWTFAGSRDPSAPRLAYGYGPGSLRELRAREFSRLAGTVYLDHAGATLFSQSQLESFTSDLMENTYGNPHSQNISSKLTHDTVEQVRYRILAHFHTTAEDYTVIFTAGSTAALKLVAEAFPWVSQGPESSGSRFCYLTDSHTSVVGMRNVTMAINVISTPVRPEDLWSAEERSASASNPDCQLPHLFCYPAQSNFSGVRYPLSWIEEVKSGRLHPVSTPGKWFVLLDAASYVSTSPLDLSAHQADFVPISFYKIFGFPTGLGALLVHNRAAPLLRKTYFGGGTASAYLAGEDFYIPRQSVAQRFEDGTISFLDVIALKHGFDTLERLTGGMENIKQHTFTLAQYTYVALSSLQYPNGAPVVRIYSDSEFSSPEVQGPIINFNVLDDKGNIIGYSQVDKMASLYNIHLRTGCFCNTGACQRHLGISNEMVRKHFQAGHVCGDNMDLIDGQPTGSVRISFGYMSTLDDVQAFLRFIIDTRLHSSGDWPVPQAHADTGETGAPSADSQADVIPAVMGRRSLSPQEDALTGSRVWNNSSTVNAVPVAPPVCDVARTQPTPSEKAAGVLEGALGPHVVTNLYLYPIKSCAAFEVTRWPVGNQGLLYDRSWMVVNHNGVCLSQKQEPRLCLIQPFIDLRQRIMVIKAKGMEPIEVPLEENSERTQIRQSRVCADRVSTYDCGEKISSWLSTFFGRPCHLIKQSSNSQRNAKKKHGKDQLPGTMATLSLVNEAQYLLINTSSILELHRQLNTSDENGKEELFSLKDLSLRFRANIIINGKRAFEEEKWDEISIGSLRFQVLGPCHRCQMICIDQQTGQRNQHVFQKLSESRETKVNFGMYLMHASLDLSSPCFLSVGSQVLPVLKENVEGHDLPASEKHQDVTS
UniProt Q9NYP9: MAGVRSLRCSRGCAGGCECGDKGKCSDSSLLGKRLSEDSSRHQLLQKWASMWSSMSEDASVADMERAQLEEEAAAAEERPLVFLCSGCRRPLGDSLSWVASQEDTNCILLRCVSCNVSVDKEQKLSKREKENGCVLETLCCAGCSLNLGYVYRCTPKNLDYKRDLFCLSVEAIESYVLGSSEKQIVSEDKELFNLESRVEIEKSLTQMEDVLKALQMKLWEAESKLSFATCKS
UniProt Q9UH92: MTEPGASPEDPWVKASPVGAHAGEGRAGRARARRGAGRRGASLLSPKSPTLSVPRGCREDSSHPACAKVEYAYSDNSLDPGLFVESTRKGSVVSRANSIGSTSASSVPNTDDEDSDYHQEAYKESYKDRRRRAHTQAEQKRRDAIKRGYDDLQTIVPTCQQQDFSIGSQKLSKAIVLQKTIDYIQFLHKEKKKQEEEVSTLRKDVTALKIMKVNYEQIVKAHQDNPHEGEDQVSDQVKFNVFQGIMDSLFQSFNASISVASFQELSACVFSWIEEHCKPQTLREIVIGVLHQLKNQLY
UniProt P22033: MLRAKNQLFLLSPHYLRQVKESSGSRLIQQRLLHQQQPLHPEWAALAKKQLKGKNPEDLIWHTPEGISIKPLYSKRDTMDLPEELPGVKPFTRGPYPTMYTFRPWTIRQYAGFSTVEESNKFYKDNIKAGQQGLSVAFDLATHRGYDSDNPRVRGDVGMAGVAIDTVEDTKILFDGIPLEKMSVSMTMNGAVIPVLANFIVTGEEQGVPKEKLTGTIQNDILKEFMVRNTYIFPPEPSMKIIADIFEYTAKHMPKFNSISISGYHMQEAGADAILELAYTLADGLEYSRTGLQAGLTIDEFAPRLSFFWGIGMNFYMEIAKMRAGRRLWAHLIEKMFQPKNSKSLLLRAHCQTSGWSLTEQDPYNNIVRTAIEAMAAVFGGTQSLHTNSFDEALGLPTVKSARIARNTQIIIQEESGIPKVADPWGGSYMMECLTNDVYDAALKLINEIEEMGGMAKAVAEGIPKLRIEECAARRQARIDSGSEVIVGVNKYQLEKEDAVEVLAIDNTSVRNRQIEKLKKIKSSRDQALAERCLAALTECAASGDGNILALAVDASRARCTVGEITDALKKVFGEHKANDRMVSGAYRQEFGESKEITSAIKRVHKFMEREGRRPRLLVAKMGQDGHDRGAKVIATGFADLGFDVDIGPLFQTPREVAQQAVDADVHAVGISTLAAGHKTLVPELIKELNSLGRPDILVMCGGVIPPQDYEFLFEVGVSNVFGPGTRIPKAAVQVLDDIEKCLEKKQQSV
UniProt Q09328: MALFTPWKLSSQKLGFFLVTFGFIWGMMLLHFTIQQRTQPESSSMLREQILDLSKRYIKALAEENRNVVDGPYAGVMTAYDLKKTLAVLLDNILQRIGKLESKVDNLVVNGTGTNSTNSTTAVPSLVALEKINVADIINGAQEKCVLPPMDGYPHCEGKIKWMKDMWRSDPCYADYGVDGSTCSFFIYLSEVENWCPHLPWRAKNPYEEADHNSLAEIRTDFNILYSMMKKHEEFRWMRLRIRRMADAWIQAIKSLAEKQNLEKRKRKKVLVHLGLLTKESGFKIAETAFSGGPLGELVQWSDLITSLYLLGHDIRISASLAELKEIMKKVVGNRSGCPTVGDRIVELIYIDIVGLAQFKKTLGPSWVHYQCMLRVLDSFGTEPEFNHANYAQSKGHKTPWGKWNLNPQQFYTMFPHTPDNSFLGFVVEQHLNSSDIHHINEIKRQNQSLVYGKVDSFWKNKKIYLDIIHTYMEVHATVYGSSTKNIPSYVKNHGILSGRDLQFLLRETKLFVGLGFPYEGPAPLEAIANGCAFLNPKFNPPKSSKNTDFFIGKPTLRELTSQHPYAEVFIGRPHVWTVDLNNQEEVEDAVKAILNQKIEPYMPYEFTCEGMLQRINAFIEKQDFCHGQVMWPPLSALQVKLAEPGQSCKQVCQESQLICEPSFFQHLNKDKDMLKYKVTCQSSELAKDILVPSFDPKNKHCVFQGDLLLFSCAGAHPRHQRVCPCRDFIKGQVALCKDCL
UniProt Q9NZB8: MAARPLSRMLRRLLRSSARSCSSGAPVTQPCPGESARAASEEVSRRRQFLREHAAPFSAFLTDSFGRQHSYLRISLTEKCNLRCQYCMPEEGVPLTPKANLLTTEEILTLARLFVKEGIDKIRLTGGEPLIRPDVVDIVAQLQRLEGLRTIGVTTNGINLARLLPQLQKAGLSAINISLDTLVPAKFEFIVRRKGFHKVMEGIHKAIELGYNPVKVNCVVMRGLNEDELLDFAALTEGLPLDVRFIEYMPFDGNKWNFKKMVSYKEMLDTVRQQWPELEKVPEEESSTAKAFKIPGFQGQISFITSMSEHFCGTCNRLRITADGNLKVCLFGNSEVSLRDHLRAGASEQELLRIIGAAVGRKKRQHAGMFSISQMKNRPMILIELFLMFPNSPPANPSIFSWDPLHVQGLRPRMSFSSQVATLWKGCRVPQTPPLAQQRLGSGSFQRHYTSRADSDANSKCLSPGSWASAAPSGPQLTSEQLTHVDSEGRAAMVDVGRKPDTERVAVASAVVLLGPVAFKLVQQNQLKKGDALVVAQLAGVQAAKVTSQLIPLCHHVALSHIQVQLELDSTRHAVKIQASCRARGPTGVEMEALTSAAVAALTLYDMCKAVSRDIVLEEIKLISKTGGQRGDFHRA
UniProt Q567V2: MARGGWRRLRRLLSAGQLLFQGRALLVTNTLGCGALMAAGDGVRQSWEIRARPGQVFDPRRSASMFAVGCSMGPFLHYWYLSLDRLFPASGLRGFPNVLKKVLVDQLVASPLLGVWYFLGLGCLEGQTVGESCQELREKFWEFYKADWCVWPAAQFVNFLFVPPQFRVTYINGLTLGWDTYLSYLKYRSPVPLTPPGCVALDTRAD
UniProt Q5TGZ0: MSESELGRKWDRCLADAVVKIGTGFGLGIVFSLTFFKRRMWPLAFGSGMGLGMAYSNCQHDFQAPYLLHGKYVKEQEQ
UniProt Q00013: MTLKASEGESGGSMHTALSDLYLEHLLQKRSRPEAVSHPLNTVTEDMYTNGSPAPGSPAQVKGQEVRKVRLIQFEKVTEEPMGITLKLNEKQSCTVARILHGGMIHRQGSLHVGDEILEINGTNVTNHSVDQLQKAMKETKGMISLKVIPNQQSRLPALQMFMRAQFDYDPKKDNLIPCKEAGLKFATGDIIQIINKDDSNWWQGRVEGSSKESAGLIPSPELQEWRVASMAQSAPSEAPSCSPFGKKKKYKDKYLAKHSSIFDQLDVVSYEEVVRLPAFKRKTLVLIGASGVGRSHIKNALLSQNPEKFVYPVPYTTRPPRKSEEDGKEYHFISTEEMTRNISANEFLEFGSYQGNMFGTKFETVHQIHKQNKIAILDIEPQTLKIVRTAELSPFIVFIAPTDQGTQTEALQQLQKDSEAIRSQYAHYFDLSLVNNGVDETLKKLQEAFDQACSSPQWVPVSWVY
UniProt Q9Y605: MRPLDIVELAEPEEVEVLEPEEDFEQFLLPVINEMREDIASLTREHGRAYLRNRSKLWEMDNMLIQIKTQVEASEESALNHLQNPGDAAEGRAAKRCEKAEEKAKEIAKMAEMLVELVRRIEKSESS
UniProt Q9BQP7: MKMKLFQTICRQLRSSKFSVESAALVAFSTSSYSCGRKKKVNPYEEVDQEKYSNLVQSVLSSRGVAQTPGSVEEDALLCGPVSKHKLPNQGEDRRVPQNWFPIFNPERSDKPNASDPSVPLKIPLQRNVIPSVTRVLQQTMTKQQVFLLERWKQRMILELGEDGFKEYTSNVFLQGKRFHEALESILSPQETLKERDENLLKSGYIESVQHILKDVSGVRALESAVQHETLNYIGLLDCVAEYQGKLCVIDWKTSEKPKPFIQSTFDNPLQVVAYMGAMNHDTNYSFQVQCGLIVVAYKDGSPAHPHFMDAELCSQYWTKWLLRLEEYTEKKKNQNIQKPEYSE
UniProt Q9UHC7: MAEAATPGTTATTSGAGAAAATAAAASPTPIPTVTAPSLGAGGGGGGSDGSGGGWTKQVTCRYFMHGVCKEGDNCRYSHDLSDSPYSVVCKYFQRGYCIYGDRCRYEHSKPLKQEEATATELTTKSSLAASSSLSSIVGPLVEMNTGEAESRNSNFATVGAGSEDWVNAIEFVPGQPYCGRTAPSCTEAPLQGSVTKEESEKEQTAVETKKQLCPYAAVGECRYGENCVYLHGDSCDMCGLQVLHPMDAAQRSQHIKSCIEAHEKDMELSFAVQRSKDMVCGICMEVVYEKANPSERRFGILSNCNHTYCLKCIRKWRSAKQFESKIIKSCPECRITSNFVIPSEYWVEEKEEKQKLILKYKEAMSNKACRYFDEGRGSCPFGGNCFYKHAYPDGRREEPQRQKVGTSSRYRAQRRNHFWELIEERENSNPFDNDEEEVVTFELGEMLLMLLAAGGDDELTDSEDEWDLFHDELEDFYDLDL
UniProt Q14149: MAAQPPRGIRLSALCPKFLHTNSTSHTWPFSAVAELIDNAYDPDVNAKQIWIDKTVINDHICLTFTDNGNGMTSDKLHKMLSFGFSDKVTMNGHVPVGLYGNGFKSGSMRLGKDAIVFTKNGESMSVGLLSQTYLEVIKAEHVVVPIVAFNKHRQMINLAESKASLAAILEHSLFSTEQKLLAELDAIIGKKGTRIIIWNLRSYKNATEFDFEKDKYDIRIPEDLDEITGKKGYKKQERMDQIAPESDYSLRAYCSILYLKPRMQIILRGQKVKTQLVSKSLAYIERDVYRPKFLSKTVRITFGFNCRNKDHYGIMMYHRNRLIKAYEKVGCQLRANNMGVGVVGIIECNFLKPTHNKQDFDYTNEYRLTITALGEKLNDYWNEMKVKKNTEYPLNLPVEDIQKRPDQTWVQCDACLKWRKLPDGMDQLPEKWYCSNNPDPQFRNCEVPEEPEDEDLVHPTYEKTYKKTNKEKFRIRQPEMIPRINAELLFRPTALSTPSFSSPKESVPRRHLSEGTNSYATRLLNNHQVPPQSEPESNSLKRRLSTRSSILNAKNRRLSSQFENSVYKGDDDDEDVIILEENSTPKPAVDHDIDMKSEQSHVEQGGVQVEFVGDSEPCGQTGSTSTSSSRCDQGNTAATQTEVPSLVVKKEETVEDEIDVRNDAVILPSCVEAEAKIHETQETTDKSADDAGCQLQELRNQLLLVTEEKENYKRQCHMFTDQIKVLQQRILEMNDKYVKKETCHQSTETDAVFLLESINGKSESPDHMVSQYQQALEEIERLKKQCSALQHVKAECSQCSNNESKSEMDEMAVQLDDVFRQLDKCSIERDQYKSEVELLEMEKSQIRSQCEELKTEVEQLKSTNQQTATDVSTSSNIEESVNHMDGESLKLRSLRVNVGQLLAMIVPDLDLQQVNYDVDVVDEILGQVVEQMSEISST
UniProt Q9BVC4, whole entry, looked up: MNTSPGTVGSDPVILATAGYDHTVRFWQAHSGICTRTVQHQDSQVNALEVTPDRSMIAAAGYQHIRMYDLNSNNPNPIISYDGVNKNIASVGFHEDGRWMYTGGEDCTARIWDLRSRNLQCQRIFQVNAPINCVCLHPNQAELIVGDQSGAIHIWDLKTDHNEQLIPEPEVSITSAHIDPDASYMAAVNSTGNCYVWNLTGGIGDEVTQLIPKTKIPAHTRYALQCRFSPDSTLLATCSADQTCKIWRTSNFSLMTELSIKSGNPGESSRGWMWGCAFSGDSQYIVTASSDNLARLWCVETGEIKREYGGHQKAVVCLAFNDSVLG

Compound in the next test: O=C(CCCCCCC(=O)Nc1ccccc1)NO [vorinostat]
A digest of the protocol: as §1

Compound in another test: O=C(O)c1ccc2c(c1)nc(Nc1cccc(Cl)c1)c1ccncc12 [silmitasertib]
Put shortly:
as §1

Compound in test [2]: O=C1NC(=O)C(c2cnc3ccccn23)=C1c1cn2c3c(cc(F)cc13)CN(C(=O)N1CCCCC1)CC2
Put shortly:
as §1

Compound in the next test: c1cn2cc(-c3ccc4cn[nH]c4c3)nc(Nc3ccc(N4CCOCC4)cc3)c2n1 [entospletinib]
Put shortly: as §1

This is an account of results in the supplement of paper PMC10849652.

This is one part of the list.

In the case of MRPL16 (UniProt Q9NX20), the log2 fold change in test [1] was inactive: 0.093; with vorinostat it was inactive: -0.216; with silmitasertib, inactive: 0.125; in test [2], inactive: -0.037; with entospletinib, inactive: 0.087.
For MOCOS (UniProt Q96EN8), in that order: inactive: 0.016, inactive: -0.082, inactive: -0.003, inactive: -0.037 and inactive: 0.019.
The matching figures for MIEF1 (UniProt L0R8F8): inactive: -0.016, inactive: -0.018, inactive: 0.077, inactive: 0.029 and inactive: 0.004.
For MIS18A (UniProt Q9NYP9), in that order: inactive: -0.036, inactive: -0.206, inactive: 0.025, inactive: -0.008 and inactive: 0.024.
In the case of MLX (UniProt Q9UH92), the log2 fold change is inactive: 0.057 in test [1]; inactive: -0.273 in the test with vorinostat; inactive: -0.035 in the test with silmitasertib; inactive: 0.057 in test [2]; inactive: -0.054 in the test with entospletinib.
MITF (UniProt O75030): the log2 fold change is inactive: -0.005 in test [1]; inactive: -0.044 with vorinostat; inactive: 0.062 with silmitasertib; inactive: 0.077 in test [2]; inactive: 0.007 with entospletinib.
In the case of MMUT (UniProt P22033), the log2 fold change is inactive: -0.004 in test [1]; inactive: 0.054 with vorinostat; inactive: 0.026 in the test with silmitasertib; inactive: 0.002 in test [2]; inactive: -0.015 in the test with entospletinib.
For MMAB (UniProt Q96EY8), in that order: inactive: -0.034, inactive: 0.027, inactive: -0.01, inactive: -0.016 and inactive: 0.04.
For MPDU1 (UniProt O75352), the log2 fold change was inactive: -0.043 in test [1]; inactive: 0 with vorinostat; inactive: -0.04 with silmitasertib; inactive: 0.057 in test [2]; inactive: 0.027 with entospletinib.
The matching figures for MGAT5 (UniProt Q09328): inactive: 0.054, inactive: 0.139, inactive: -0.014, inactive: 0.013 and inactive: 0.063.
The matching figures for MRPL1 (UniProt Q9BYD6): inactive: 0.038, inactive: -0.107, inactive: 0.038, inactive: -0.001 and inactive: 0.005.
For MOCS1 isoform 8 (UniProt Q9NZB8), in that order: inactive: -0.1, inactive: 0.06, inactive: -0.018, inactive: -0.111 and inactive: -0.051.
As for MPV17L2 (UniProt Q567V2), the log2 fold change in test [1] is inactive: 0.028; with vorinostat it was inactive: -0.109; in the test with silmitasertib it was inactive: -0.044; in test [2], inactive: -0.104; with entospletinib, inactive: -0.032.
For MICOS10 (UniProt Q5TGZ0), in that order: inactive: -0.15, inactive: -0.025, inactive: 0.045, inactive: -0.014 and inactive: -0.066.
Regarding MRPL14 (UniProt Q6P1L8), the log2 fold change in test [1] was inactive: -0.039; with vorinostat, inactive: -0.009; with silmitasertib it was inactive: -0.006; in test [2], inactive: 0.041; with entospletinib it was inactive: 0.013.
For MPRIP isoform 2 (UniProt Q6WCQ1), in that order: inactive: 0.033, inactive: -0.041, inactive: 0.01, inactive: 0.023 and inactive: -0.089.
Regarding MPP1 (UniProt Q00013), the log2 fold change is inactive: 0.012 in test [1]; active: -0.297 in the test with vorinostat; inactive: 0.02 with silmitasertib; inactive: 0.024 in test [2]; inactive: 0.007 with entospletinib.
The matching figures for MRFAP1 (UniProt Q9Y605): inactive: -0.043, inactive: 0.044, inactive: 0.086, inactive: 0.032 and inactive: 0.016.
On to MGME1 (UniProt Q9BQP7), for which the log2 fold change in test [1] is inactive: -0.015; with vorinostat it was inactive: 0.162; in the test with silmitasertib it was inactive: -0.015; in test [2], inactive: -0.01; with entospletinib it was inactive: -0.018.
With MRI1 (UniProt Q9BV20), the log2 fold change is inactive: 0.03 in test [1]; inactive: -0.021 with vorinostat; inactive: 0.01 with silmitasertib; inactive: 0.025 in test [2]; inactive: 0.032 with entospletinib.
As to MKRN1 (UniProt Q9UHC7), the log2 fold change was inactive: 0.086 in test [1]; inactive: -0.243 with vorinostat; inactive: 0.087 with silmitasertib; inactive: -0.003 in test [2]; inactive: -0.025 with entospletinib.
On to MKNK1 (UniProt Q9BUB5), for which the log2 fold change in test [1] is inactive: 0.022; with vorinostat it was inactive: -0.056; in the test with silmitasertib, inactive: -0.001; in test [2], inactive: -0.012; with entospletinib it was inactive: 0.021.
For MORC3 (UniProt Q14149), in that order: inactive: 0.008, active: -0.303, inactive: -0.01, inactive: 0.005 and inactive: 0.009.
For MLST8 (UniProt Q9BVC4), in that order: inactive: 0.006, active: -0.357, inactive: 0.104, inactive: 0.046 and inactive: 0.043.
